Record: PubChem BioAssay AID1259405 (NCATS, 2018)
In all, the deposit lists about 50,000 reagents; this is an unselected part. Over the whole deposit, about 4,000 (8%) are marked active. 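Mouse siRNA library applied to hamster cells; one well for each siRNA.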 Entries without a mark were called inactive. The numbers tell different reagents against one gene apart. No sequences are given here.

Purpose: 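Silenced genes that increase secreted GFP made by CHO cells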 (primary screen)
System: Chinese hamster CHO-K1 ovary cells with stable secreted eGFP expression
Reagent: single siRNA against mouse genes, 0.8 pmol siRNA per well (2 µl of 400 nM stock)
Time to read-out: 3 days
Measured: 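Per-well intracellular GFP measured by laser scanning cytometry, plus viability from ATP luminescence, each relative to plate median of non-targeting control wells, in %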
Reading the numbers: GFP, % of control: higher = more GFP per well, higher productivity; viability (ATP), % of control: higher = more viable cells (more ATP)
Hit rule: 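Called active when intracellular GFP, relative to negative control, is at or above 120%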

| gene knocked down | reagent no. | GFP, % of control | viability (ATP), % of control |
| --- | --- | --- | --- |
| Col11a1 | 1 | 46.8 | 34.8 |
| Col11a1 | 2 | 103 | 79.1 |
| Col11a1 | 3 | 63.7 | 58.8 |
| Klk1b24 | 1 | 136 (active) | 105 |
| Klk1b24 | 2 | 74.9 | 93.6 |
| Klk1b24 | 3 | 97.6 | 96.4 |
| Ddah1 | 1 | 67.1 | 70.8 |
| Ddah1 | 2 | 96.4 | 96.1 |
| Ddah1 | 3 | 195 (active) | 66.1 |
| 2010106E10Rik | 1 | 71.8 | 80 |
| 2010106E10Rik | 2 | 83.2 | 83.3 |
| 2010106E10Rik | 3 | 94.4 | 103 |
| Klrb1f | 1 | 66.2 | 54.4 |
| Klrb1f | 2 | 77.6 | 80.1 |
| Klrb1f | 3 | 6.66 | 17.3 |
| Or11i1 | 1 | 35.2 | 19 |
| Or11i1 | 2 | 66.5 | 50.1 |
| Or11i1 | 3 | 71.5 | 49.1 |
| Nxn | 1 | 90.8 | 97.7 |
| Nxn | 2 | 126 (active) | 90.6 |
| Nxn | 3 | 94.2 | 86.6 |
| R3hcc1l | 1 | 51.1 | 64.7 |
| R3hcc1l | 2 | 18.5 | 28.2 |
| R3hcc1l | 3 | 32.7 | 54.8 |
| Dpm1 | 1 | 92.7 | 85.5 |
| Dpm1 | 2 | 94.9 | 51.5 |
| Twf2 | 1 | 43 | 34.9 |
| Twf2 | 2 | 58.5 | 60.2 |
| Selenov | 1 | 83.1 | 94.3 |
| Selenov | 2 | 88.2 | 90.2 |
| Selenov | 3 | 87 | 81.9 |
| Cnga3 | 1 | 100 | 93.1 |
| Cnga3 | 2 | 101 | 88 |
| Cnga3 | 3 | 39.6 | 73.4 |
| Faap100 | 1 | 99.4 | 93.8 |
| Faap100 | 2 | 169 (active) | 87 |
| Faap100 | 3 | 64.7 | 69.6 |
| Map3k6 | 1 | 88.4 | 89 |
| Coro7 | 1 | 69.2 | 49.1 |
| Coro7 | 2 | 74.3 | 90.2 |
| Coro7 | 3 | 30.6 | 68.2 |
| Klk1b22 | 1 | 134 (active) | 113 |
| Klk1b22 | 2 | 94.1 | 60.3 |
| Klk1b22 | 3 | 92.3 | 71.5 |
| Or52k2 | 1 | 110 | 102 |
| Or52k2 | 2 | 89.9 | 91.4 |
| Or52k2 | 3 | 80.2 | 93.9 |
| Slc30a7 | 1 | 103 | 84.4 |
| Slc30a7 | 2 | 76.2 | 63.2 |
| Slc30a7 | 3 | 75.2 | 59.9 |
| Tlr9 | 1 | 58.3 | 51.5 |
| Tlr9 | 2 | 94.5 | 48.4 |
| Tlr9 | 3 | 73.6 | 97.2 |
| Fez2 | 1 | 42.7 | 60.9 |
| Fez2 | 2 | 79.4 | 74.9 |
| Fez2 | 3 | 91.4 | 84.4 |
| Mafg | 1 | 55 | 64.4 |
| Mafg | 2 | 71.7 | 80.9 |
| Mafg | 3 | 54.1 | 67.5 |
| Dnajc14 | 1 | 108 | 60.2 |
| Dnajc14 | 2 | 54.5 | 52.5 |
| Dnajc14 | 3 | 16.8 | 33.1 |
| Clec4a4 | 1 | 18.6 | 25.5 |
| Clec4a4 | 2 | 76.9 | 54.3 |
| Clec4a4 | 3 | 34 | 53.4 |
| Or12j3 | 1 | 48.3 | 23.8 |
| Or12j3 | 2 | 68 | 81 |
| Or12j3 | 3 | 106 | 117 |
| Cchcr1 | 1 | 75.7 | 87.6 |
| Cchcr1 | 2 | 54.1 | 52.1 |
| Cchcr1 | 3 | 86.8 | 49.4 |
| Tmem255a | 1 | 44.8 | 77.4 |
| Tmem255a | 2 | 83.7 | 92.9 |
| Tmem255a | 3 | 89.4 | 126 |
| Tlr13 | 1 | 59.8 | 70.3 |
| Tlr13 | 2 | 84 | 83.6 |
| Tlr13 | 3 | 74.1 | 89.6 |
| Extl3 | 1 | 87.6 | 117 |
| Extl3 | 2 | 103 | 135 |
| Extl3 | 3 | 94.2 | 117 |
| Nup188 | 1 | 64.9 | 75 |
| Nup188 | 2 | 67.8 | 87.4 |
| Nup188 | 3 | 50 | 51.3 |
| Gsdmd | 1 | 0 | 316 |
| Gsdmd | 2 | 32.9 | 27.5 |
| Gsdmd | 3 | 73.3 | 61.6 |
| Polr3d | 1 | 80.9 | 60.3 |
| Polr3d | 2 | 86.3 | 54.6 |
| Polr3d | 3 | 79.8 | 58.1 |
| Marveld1 | 1 | 87.2 | 61 |
| Marveld1 | 2 | 242 (active) | 44.6 |
| Marveld1 | 3 | 65.6 | 43.1 |
| Serpina11 | 1 | 100 | 99.8 |
| Serpina11 | 2 | 114 | 99.5 |
| Serpina11 | 3 | 76.2 | 84.8 |
| Vmn1r234 | 1 | 86.1 | 76.5 |
| Vmn1r234 | 2 | 86.7 | 106 |
| Vmn1r234 | 3 | 30.2 | 39.7 |
| Pkp1 | 1 | 87 | 48.9 |
| Pkp1 | 2 | 72.5 | 51.1 |
| Pkp1 | 3 | 80.7 | 70.9 |
| Wdr3 | 1 | 52.6 | 41.8 |
| Wdr3 | 2 | 49.3 | 47.9 |
| Wdr3 | 3 | 45.8 | 56.3 |
| Zfp639 | 1 | 76.8 | 65.4 |
| Zfp639 | 2 | 81.2 | 76.8 |
| Agxt2 | 1 | 93.9 | 95.1 |
| Agxt2 | 2 | 57.2 | 122 |
| Agxt2 | 3 | 109 | 97.6 |

6 entries from above, sorted by “viability (ATP), % of control”, highest first.
| gene knocked down | reagent no. | GFP, % of control | viability (ATP), % of control |
| --- | --- | --- | --- |
| Faap100 | 1 | 99.4 | 93.8 |
| Cnga3 | 1 | 100 | 93.1 |
| Cnga3 | 2 | 101 | 88 |
| Faap100 | 2 | 169 (active) | 87 |
| Cnga3 | 3 | 39.6 | 73.4 |
| Faap100 | 3 | 64.7 | 69.6 |
